Data as given in PubChem BioAssay AID1259308 (NCATS, 2017).

- Aim: 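Candidate targets for better recombinant protein yield in mammalian cells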 (primary screen)
- System: human HEK293 embryonic kidney cells stably expressing firefly luciferase (HEK-CMV-Luc2-Hygro)
- Knock-down reagent: single siRNA against human genes, 0.8 pmol siRNA per well
- Timing: 72 h
- Measured: 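Reporter luminescence and viable-cell signal on separate replicate plates, given as percent of non-targeting control and median/MAD z-scores, plus per-cell luciferase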
- Reading the numbers: total luciferase, z-score and total luciferase, % of control: higher = more reporter protein produced; luciferase per cell, z-score: higher = more reporter output per viable cell; viable cells, % of control: higher = more viable cells
- Call rule: 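Active when the median/MAD z-score for overall luciferase is greater than 3; a gene was taken forward for validation with new siRNAs if at least two of its three siRNAs passed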
- Meaning of the calls: active = raised luciferase; inactive = no rise
Here is a random part of about 59,000 deposited reagents. About 1,510 of all reagents (2.6%) were called active. 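Calls use total luciferase alone and ignore viability, so some active siRNAs may act by altering cell number.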

gene | PubChem SID | total luciferase, z-score | total luciferase, % of control | luciferase per cell, z-score | viable cells, % of control | activity call
B3GNT6 | SID160760542 | -0.0789 | 80.3 | -0.608 | 105 | inactive
B3GNT6 | SID160760544 | -0.47 | 72.5 | -0.838 | 101 | inactive
B3GNT6 | SID160760545 | 0.171 | 85.3 | 0.0722 | 93.5 | inactive
TRIM67 | SID160767852 | -0.242 | 77.1 | -0.548 | 99.5 | inactive
TRIM67 | SID160767853 | -0.54 | 71.1 | -0.538 | 91.6 | inactive
TRIM67 | SID160767854 | -1.46 | 52.8 | -0.71 | 71.1 | inactive
GLB1L | SID160731915 | -1.2 | 58.1 | -0.323 | 70.7 | inactive
GLB1L | SID160748852 | -0.308 | 75.8 | -0.403 | 94.1 | inactive
GLB1L | SID160748853 | -0.164 | 78.6 | -0.895 | 111 | inactive
INPP5E | SID160745080 | -1.48 | 52.4 | -0.784 | 72 | inactive
INPP5E | SID160745081 | -1.72 | 47.6 | -1.62 | 81.5 | inactive
INPP5E | SID160745082 | 0.82 | 98.2 | 1.7 | 70.1 | inactive
UBE2D4 | SID160731385 | 0.687 | 95.5 | 0.777 | 87 | inactive
UBE2D4 | SID160741103 | -1.74 | 47.3 | -1.76 | 84.1 | inactive
UBE2D4 | SID160741105 | 0.547 | 92.8 | -0.655 | 123 | inactive
KIAA1328 | SID160746212 | 0.415 | 90.1 | 1.21 | 73.3 | inactive
KIAA1328 | SID160746213 | -0.615 | 69.7 | -0.506 | 88.9 | inactive
KIAA1328 | SID160746214 | 1.87 | 119 | 1.48 | 90.2 | inactive
SLC18A3 | SID160716971 | -0.883 | 64.3 | -1.05 | 94.7 | inactive
SLC18A3 | SID160716972 | 0.375 | 89.3 | -0.249 | 107 | inactive
SLC18A3 | SID160716973 | 0.613 | 94.1 | 0.331 | 96.3 | inactive
MRPL3 | SID160730221 | 0.597 | 93.8 | 0.123 | 101 | inactive
MRPL3 | SID160730222 | 0.117 | 84.2 | -0.0492 | 95.3 | inactive
MRPL3 | SID160730224 | 1.15 | 105 | 1.14 | 86.9 | inactive
CENATAC | SID160764059 | 1.02 | 102 | 0.554 | 98.8 | inactive
CENATAC | SID160764060 | -0.66 | 68.8 | -0.979 | 99.4 | inactive
CENATAC | SID160764062 | -0.342 | 75.1 | -1.08 | 112 | inactive
PODXL | SID160714584 | -1.5 | 52 | -1.58 | 88.2 | inactive
PODXL | SID160714586 | 0.356 | 89 | 1.78 | 62.2 | inactive
PODXL | SID160714587 | 0.0549 | 83 | -0.815 | 115 | inactive
IL21R | SID160739648 | -0.312 | 75.7 | -0.578 | 98.5 | inactive
IL21R | SID160739649 | -0.405 | 73.8 | -0.864 | 104 | inactive
IL21R | SID160739650 | -0.0467 | 81 | 0.568 | 77.9 | inactive
YWHAZ | SID160718942 | -1.15 | 59.1 | -0.696 | 79.3 | inactive
YWHAZ | SID160718943 | -0.713 | 67.7 | -0.248 | 80.8 | inactive
YWHAZ | SID160718944 | 0.946 | 101 | 0.802 | 91.1 | inactive
NOL9 | SID160749242 | 1.43 | 110 | 1.14 | 91.2 | inactive
NOL9 | SID160749243 | 0.11 | 84.1 | -0.415 | 105 | inactive
NOL9 | SID160749244 | 0.51 | 92 | -0.0184 | 103 | inactive
RPS28P3 | SID160769357 | 1.21 | 106 | 0.54 | 103 | inactive
RPS28P3 | SID160769358 | -0.883 | 64.3 | -0.429 | 80.5 | inactive
RPS28P3 | SID160769359 | -0.249 | 76.9 | -0.702 | 103 | inactive
ALOX15B | SID160716779 | -1.42 | 53.6 | -1.99 | 101 | inactive
ALOX15B | SID160716789 | 0.793 | 97.7 | 0.61 | 92.9 | inactive
ALOX15B | SID160716800 | 1.16 | 105 | 1.67 | 75.5 | inactive
CACNA1F | SID160735329 | -0.247 | 77 | -0.405 | 95.7 | inactive
CACNA1F | SID160735340 | 0.603 | 93.9 | 0.366 | 95.3 | inactive
CACNA1F | SID160735351 | -1.14 | 59.2 | -1.52 | 98.7 | inactive
TCAF1 | SID160722978 | -2.56 | 31 | -1.13 | 46.6 | inactive
TCAF1 | SID160722980 | -1.38 | 54.4 | -1.02 | 79.5 | inactive
TCAF1 | SID160735250 | 0.455 | 90.9 | -0.367 | 112 | inactive
CHST9 | SID160751174 | -0.1 | 79.9 | -0.446 | 100 | inactive
CHST9 | SID160751175 | -0.571 | 70.5 | -0.713 | 95.1 | inactive
CHST9 | SID160751177 | 1.04 | 103 | 0.151 | 110 | inactive
CTSL | SID160730659 | 2.37 | 129 | 0.694 | 120 | inactive
CTSL | SID160750711 | 0.541 | 92.7 | 0.287 | 96 | inactive
CTSL | SID160750721 | -0.685 | 68.3 | -1.05 | 101 | inactive

Laid out differently: results already given.
| gene | PubChem SID | total luciferase, z-score | total luciferase, % of control | luciferase per cell, z-score | viable cells, % of control | activity call |
| --- | --- | --- | --- | --- | --- | --- |
| CHST9 | SID160751174 | -0.1 | 79.9 | -0.446 | 100 | inactive |
| CHST9 | SID160751175 | -0.571 | 70.5 | -0.713 | 95.1 | inactive |
| CHST9 | SID160751177 | 1.04 | 103 | 0.151 | 110 | inactive |
| CTSL | SID160730659 | 2.37 | 129 | 0.694 | 120 | inactive |
